The supplement of paper PMC6411743
± gives the standard deviation of the averaged measurements. Some of the results follow.

Molecular target: T1, UniProt Q9UPU7 and related entries
T1 sequence (whole entry): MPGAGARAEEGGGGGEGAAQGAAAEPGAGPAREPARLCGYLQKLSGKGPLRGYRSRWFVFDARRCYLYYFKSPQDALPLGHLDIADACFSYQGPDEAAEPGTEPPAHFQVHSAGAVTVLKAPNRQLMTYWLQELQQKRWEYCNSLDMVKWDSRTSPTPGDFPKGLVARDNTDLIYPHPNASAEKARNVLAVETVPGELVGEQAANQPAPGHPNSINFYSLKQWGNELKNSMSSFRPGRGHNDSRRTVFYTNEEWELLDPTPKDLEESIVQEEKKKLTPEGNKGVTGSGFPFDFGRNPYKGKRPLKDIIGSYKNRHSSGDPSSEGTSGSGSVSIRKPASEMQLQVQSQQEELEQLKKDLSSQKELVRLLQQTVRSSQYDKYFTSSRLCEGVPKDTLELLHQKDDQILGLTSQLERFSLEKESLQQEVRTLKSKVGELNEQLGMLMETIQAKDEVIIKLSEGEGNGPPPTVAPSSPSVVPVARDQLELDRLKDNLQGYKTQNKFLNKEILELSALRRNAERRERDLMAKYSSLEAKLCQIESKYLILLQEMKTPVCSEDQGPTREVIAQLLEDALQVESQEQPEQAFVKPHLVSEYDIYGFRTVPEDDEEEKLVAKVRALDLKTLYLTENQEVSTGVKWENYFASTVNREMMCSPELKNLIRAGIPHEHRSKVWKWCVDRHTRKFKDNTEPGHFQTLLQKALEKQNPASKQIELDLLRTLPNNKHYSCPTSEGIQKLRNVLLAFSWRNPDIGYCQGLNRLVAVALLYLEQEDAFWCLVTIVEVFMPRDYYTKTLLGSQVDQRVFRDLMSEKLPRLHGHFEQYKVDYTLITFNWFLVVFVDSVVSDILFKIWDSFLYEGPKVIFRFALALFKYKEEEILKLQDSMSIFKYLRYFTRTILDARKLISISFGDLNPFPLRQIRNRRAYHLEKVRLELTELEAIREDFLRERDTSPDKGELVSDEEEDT
Assay: NP40-soluble protein abundance relative to vehicle (solubility fold change) (ratio); higher = more soluble protein in presence of GTP
Procedure: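 Solubility proteome profiling in Jurkat crude lysate. Lysate was treated with Mg-GTP (0.1-10 mM) for 10 min at room temperature and 3 min at 37 °C, then solubilised with 0.8% NP40 and benzonase, followed by ultracentrifugation. Proteins were quantified by TMT10 LC-MS/MS; the value is the NP40-soluble abundance relative to the NP40-processed vehicle, from 3 independent experiments.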

Nc1nc2c(ncn2[C@@H]2O[C@H](COP(=O)(O)OP(=O)(O)OP(=O)(O)O)[C@@H](O)[C@H]2O)c(=O)[nH]1 [guanosine triphosphate]
NP40-soluble protein abundance (concentration: 0.1mM): 1.02 ± 0.025 | NP40-soluble protein abundance (concentration: 0.5mM): 1.03 ± 0.045 | NP40-soluble protein abundance (concentration: 1mM): 1.03 ± 0.013 | NP40-soluble protein abundance (concentration: 2mM): 1.02 ± 0.043 | NP40-soluble protein abundance (concentration: 4mM): 0.991 ± 0.03 | NP40-soluble protein abundance (concentration: 6mM): 1.01 ± 0.043 | NP40-soluble protein abundance (concentration: 8mM): 1.02 ± 0.018 | NP40-soluble protein abundance (concentration: 10mM): 0.952 ± 0.042
